No constants are given. Whether binding was seen depends on the method and setting. Binding seen in cells or lysates may run through a third protein.
Target: T7-tagged TRIM25ΔCC (human) (UniProt Q14258)
Experiment: co-IP; extracts of HeLa TRIM25 KO cells co-overexpressing T7-tagged and EGFP-tagged TRIM25; anti-T7 antibody on protein A agarose; western blot with anti-TRIM25 and anti-T7 antibodies

By UniProt entry, the sequences of proteins in these tests, tags left out. Where a name states a change or a piece, a line headed by the entry shows the natural chain unless it says otherwise.
UniProt Q14258: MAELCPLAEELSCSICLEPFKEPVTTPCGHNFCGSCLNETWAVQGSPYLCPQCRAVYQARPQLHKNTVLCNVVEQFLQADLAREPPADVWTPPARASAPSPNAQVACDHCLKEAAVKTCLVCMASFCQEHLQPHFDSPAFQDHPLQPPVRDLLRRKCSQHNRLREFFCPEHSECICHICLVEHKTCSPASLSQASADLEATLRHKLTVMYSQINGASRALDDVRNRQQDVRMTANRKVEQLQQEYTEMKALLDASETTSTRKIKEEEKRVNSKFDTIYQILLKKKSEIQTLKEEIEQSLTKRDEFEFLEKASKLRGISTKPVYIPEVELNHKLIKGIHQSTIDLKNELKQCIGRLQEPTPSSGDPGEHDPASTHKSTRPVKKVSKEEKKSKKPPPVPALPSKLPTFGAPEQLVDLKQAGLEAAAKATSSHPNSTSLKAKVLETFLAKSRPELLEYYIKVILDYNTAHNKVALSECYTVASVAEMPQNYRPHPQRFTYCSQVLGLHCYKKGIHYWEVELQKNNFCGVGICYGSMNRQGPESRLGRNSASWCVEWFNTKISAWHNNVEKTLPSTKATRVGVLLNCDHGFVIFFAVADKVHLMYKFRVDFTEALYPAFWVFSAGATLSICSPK

EGFP-tagged TRIM25 (wild type) (from UniProt Q14258 1-630)
binding: no binding
